# Earlier results in patent US20250032576A1, “CNP Therapy” (BIOMARIN PHARMACEUTICAL INC., priority 2021, published 2025).
# Not every detail of the peptide structures is certain; ends, links or a residue may be inferred.
# Tested on: mouse models of achondroplasia
# Conditions: in vivo; cited from earlier work
smiles,measurement,value
CC[C@H](C)[C@@H]1NC(=O)[C@H](CCCNC(=N)N)NC(=O)[C@H](CC(=O)O)NC(=O)[C@H](CC(C)C)NC(=O)[C@H](CCCCN)NC(=O)[C@H](CC(C)C)NC(=O)CNC(=O)[C@H](Cc2ccccc2)NC(=O)[C@@H](NC(=O)CNC(=O)[C@H](CCCCN)NC(=O)[C@H](CO)NC(=O)[C@H](CC(C)C)NC(=O)CNC(=O)[C@H](CCCCN)NC(=O)[C@H](CCCCN)NC(=O)[C@H](CC(N)=O)NC(=O)[C@H](C)NC(=O)CNC(=O)[C@H](CCCCN)NC(=O)[C@H](Cc2ccc(O)cc2)NC(=O)[C@H](CCCCN)NC(=O)[C@H](CCCNC(=N)N)NC(=O)[C@H](C)NC(=O)[C@H](CC(N)=O)NC(=O)[C@@H]2CCCN2C(=O)[C@H](Cc2c[nH]cn2)NC(=O)[C@H](CCC(=O)O)NC(=O)[C@H](CCC(N)=O)NC(=O)CNC(=O)[C@@H]2CCCN2)CSSC[C@@H](C(=O)O)NC(=O)CNC(=O)[C@H](CC(C)C)NC(=O)CNC(=O)[C@H](CO)NC(=O)[C@H](CCSC)NC(=O)[C@H](CO)NC(=O)CNC1=O [Vosoritide],craniofacial skeletal and foramen magnum abnormalities,ameliorates
